# Data published in publication PMC10175288.
# By UniProt entry, the sequences of proteins in these tests, tags left out.
# UniProt Q02248: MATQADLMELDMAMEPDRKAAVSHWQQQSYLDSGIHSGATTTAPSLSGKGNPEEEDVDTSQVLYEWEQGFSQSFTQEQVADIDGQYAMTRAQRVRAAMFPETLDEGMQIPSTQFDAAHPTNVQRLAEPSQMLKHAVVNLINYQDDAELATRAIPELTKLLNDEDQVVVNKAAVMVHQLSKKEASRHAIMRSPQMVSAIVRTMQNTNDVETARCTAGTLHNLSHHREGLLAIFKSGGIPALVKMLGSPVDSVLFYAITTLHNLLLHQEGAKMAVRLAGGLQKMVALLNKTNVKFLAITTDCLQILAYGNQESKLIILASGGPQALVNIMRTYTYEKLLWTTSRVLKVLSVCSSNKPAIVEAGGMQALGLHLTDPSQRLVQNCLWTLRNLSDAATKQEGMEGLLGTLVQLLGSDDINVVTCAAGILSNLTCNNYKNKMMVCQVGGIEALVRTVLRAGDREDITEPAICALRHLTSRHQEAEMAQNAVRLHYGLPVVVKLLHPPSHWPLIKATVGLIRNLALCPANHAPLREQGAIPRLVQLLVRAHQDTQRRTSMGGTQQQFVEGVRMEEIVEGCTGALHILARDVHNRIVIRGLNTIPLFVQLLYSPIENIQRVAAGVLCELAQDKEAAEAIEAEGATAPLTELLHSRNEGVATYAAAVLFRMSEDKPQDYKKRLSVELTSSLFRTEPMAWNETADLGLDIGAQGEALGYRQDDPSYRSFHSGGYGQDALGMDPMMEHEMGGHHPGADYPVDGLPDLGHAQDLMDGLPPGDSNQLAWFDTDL
# UniProt O35625: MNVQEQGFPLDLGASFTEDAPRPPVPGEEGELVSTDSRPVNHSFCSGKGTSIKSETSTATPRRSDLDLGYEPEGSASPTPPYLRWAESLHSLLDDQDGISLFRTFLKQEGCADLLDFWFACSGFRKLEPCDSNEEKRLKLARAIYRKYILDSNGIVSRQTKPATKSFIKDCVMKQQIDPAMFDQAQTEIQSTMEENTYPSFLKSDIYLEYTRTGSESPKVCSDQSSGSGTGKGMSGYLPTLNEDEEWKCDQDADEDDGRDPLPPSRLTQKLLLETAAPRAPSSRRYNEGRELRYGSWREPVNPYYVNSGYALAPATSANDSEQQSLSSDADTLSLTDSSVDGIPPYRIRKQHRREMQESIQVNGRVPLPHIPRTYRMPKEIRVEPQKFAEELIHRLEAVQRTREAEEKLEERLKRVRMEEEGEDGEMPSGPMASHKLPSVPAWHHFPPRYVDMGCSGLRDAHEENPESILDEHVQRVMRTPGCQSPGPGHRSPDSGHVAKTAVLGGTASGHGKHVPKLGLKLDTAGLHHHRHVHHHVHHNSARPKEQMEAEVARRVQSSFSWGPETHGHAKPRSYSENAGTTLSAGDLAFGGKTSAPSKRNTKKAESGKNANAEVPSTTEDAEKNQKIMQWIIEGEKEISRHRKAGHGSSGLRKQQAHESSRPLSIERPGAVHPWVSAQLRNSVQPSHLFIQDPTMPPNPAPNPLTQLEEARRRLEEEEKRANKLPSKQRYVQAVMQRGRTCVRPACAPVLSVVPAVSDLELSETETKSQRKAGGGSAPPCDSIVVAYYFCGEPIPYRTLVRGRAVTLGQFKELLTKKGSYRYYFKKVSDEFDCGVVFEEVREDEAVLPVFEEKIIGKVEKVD
# No constants are given. Whether binding was seen depends on the method and setting. Binding seen in cells or lysates may run through a third protein. Some binding calls cover weakened binding; strength is not graded here.
# Columns and labels:
# Test in all cases: co-IP; lysates of dissociated mammospheres of mock or p140Cap TuBo and 4T1 cells; lysis buffer 150 mM NaCl, 50 mM Tris pH 7.4, 1% NP-40, 1 mM MgCl2, 5% glycerol; 1 or 2 mg of proteins with 1 or 2 ug of antibodies to p140Cap, β-Catenin, Axin1 or GSK-3β, protein G Dynabeads, 2 h at 4 °C, seven washes; immunoblot; β-Catenin IP also from mock TuBo mammospheres treated 5 days with 1 uM IWR-1 or DMSO
# [1] = biological target: T1, p140Cap adaptor protein, encoded by the SRCIN1 gene, expressed by retroviral transduction (UniProt Q9QWI6)
# T1 sequence: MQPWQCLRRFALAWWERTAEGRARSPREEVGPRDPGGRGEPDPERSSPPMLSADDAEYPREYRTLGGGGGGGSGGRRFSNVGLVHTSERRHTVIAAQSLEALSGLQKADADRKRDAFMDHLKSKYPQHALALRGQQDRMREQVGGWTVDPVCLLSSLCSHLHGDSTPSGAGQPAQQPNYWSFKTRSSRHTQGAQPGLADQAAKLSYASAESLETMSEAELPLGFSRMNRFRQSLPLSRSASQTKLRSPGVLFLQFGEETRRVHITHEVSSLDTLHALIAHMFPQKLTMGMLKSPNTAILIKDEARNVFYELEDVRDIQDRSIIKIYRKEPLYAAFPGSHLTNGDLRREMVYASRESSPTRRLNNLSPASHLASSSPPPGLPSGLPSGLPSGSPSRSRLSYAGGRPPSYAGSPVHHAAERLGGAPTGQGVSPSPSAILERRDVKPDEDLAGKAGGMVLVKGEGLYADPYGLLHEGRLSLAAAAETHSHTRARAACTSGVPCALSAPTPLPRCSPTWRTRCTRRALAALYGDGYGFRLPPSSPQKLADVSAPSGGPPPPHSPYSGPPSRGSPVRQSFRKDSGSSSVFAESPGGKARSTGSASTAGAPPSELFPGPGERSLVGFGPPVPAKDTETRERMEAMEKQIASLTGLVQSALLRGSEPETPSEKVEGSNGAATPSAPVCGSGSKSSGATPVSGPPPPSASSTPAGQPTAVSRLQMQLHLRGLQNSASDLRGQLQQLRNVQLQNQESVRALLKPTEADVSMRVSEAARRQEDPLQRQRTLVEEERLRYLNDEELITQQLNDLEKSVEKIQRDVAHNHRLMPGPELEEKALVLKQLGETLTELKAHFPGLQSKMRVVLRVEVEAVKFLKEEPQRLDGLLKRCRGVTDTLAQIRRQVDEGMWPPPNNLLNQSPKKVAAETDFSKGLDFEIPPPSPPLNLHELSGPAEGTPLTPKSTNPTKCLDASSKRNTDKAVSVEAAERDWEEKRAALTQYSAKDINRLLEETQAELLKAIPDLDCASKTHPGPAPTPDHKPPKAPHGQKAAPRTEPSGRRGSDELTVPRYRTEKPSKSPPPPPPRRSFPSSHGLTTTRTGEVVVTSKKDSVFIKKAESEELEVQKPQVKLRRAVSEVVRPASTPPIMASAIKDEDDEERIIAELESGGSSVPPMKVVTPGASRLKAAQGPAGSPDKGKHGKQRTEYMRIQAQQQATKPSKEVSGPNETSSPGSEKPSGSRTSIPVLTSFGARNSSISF
# [2] = biological target: β-Catenin (endogenous in TuBo and 4T1 mammospheres) (mouse (endogenous in TuBo and 4T1)) (UniProt Q02248)
# [3] = biological target: Axin1 (endogenous in TuBo and 4T1 mammospheres) (mouse (endogenous in TuBo and 4T1)) (UniProt O35625)
binding [1],binding [2],binding [3],Substance
binds,binds,,Axin1 (endogenous in TuBo and 4T1 mammospheres) (from UniProt O35625 1-863)
binds,,binds,β-Catenin (endogenous in TuBo and 4T1 mammospheres) (from UniProt Q02248 1-781)
